Here are results for one substance from article PMC8009664.

The test addresses human NHE1 R651-D692 (H2) (human) (UniProt P19634). Description: NMR chemical shifts against peptide concentration; 1H,15N HSQC spectra of NHE1 H2 at different concentrations; both purified.

These are yes or no findings as the source states them, for the method shown. Some entries that bind do so weakly or less than the wild type.

With “human NHE1 R651-D692 (H2) (from UniProt P19634 651-692) (peptide)”, the binding entry is given as “binds weakly”.
